In the test the target is T1, His‐HACD2 expressed in HEK‐293T cells (human) (UniProt Q6Y1H2).
T1 sequence: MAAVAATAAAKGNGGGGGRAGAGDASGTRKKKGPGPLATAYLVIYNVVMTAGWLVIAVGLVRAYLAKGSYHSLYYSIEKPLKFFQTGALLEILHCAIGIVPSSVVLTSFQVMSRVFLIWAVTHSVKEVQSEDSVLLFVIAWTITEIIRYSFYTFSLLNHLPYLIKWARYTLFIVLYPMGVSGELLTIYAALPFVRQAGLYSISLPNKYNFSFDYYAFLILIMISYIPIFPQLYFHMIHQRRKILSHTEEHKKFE
The experiment in a line: affinity purification with mass spectrometry; HEK-293T cells transfected with His-HACD2; IP with an anti-His antibody or IgG, protein A/G 2 h at room temperature, SDS-PAGE, mass spectrometry.

By UniProt entry, the sequences of proteins in these tests, tags left out.
UniProt O60260: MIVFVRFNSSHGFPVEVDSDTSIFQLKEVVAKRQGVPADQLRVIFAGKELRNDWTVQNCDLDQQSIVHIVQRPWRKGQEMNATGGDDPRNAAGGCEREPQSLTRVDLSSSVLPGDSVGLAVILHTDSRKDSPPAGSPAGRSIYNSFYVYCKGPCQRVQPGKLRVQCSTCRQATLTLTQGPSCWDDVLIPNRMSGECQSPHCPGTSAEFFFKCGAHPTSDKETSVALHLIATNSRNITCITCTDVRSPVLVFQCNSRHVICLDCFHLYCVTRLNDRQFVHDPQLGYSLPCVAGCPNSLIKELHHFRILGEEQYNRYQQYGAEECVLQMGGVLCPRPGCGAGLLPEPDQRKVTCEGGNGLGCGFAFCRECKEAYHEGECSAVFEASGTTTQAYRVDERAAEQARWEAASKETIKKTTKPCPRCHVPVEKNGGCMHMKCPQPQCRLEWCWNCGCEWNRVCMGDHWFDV

Among the data in PMC11904967 are binding values, retold here.

Results are given in words; binding and its absence hold for the method and conditions named. Binding seen in cells or lysates may run through a third protein. These calls come from enrichment with a bait or labelling near it, and not all partners need be listed. Where a sequence is shown, tags or fusion partners need not be part of it.

For the substance “E3 ubiquitin‐protein ligase parkin (PRKN), found in the HACD2 immunoprecipitate of HEK‐293T cells (from UniProt O60260 1-465)”, the binding result is “binds”.
